# Results published in PubChem BioAssay AID504444 (National Center for Advancing Translational Sciences (NCATS), 2011).
# About 7,500 (2.1%) of roughly 360,000 compounds were called active. This list was built around the results that the source calls inconclusive (neither active nor inactive); the mix of calls is not that of the screen. The call rests on the fitted dose curve; in most records, active means well fitted inhibition curve with a large enough effect; inconclusive means small, poorly fitted or top-dose-only effect, or effect the other way; inactive means flat fitted curve, though single readings scatter. Potencies of inconclusive entries are doubtful fits and often do not repeat.
# Assay: Nrf2 qHTS screen for inhibitors; further: nearly all actives have a fitted effect of over 60% in size
# Conditions: A549 ARE-Fluc reporter, luciferase luminescence, 18-24 h; activity change, negative = inhibition: at 46 µM (top of the series)
# Summary of the method: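 Two sequential reads on A549 ARE_Fluc cells exposed to compound for 18-24 h: a CellTiter-Fluor fluorescence read for viability, then a luciferase luminescence read for Nrf2/ARE activity.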
# On the % scale 0 is the no-effect control and ±100 the full control effect; potency means the concentration at half of the fitted maximal effect.
SMILES,Potency,"activity change, negative = inhibition"
Cc1sc2ncnc(N3CCCCC3C)c2c1C (stereo unspecified),"inconclusive: 14.6 µM [falling, partial curve]",–
COc1cccc(Cn2c(=O)cc(C)c3c(C)nn(C)c32)c1,"inconclusive: 23.1 µM [falling, single point]",–
COc1ccc(S(=O)Cc2ccc(C(=O)N3CCN(c4cccc(C)c4C)CC3)o2)cc1 (stereo unspecified),"inconclusive: 3.26 µM [falling, single point]",–
CC(C)Oc1ccc(C(=O)NC2=NCCS2)cc1,"inconclusive: 0.411 µM [activator, full curve, poor fit]",–
Cc1ccc(NC(=O)c2cccc3c2C(=O)N(C2CCCCC2)C3)c(Cl)c1,"inconclusive: 29.1 µM [falling, single point]",–
CCc1nn2c(-c3ccccc3OC)ccnc2c1-c1ccccc1,"inconclusive: 23.1 µM [falling, single point]",–
O=C(CCCCn1c(=O)c2ccccc2n(CC(=O)Nc2cccc(C(F)(F)F)c2)c1=O)NCc1ccc2c(c1)OCO2,–,inactive: -14.1%
CCOC(=O)c1ccc(Nc2ncnc3ccccc23)cc1,"inconclusive: 5.17 µM [falling, partial curve]",–
Cc1cc(C2=NNC(=Nc3ccc(S(=O)(=O)N4CCOCC4)cc3)SC2)c(C)n1C,–,inactive: -0.719%
COc1ccc(N2CCN(C(=O)c3cc(=O)c4cc(C)ccc4o3)CC2)cc1,"inconclusive: 23.1 µM [falling, single point]",–
COc1cc(NC(=O)C2CCCN(S(=O)(=O)c3ccc4c(c3)CCCN4C(C)=O)C2)cc(OC)c1 (stereo unspecified),"inconclusive: 23.1 µM [falling, partial curve, poor fit]",–
CC1(C)Cc2c(C#N)c(OCC(=O)c3ccc(Cl)cc3)nc(-c3ccoc3)c2CO1,–,inactive: 6.68%
COc1ccc(NC(=O)/C(C#N)=C\c2ccc(N3CCOCC3)o2)cc1,"inconclusive: 23.1 µM [activator, partial curve]",–
COc1ccc(-c2nnc(N(C)C(=O)C3CCCO3)s2)cc1 (stereo unspecified),"inconclusive: 2.91 µM [activator, full curve]",–
CCCCC[C@H](O)/C=C/[C@H]1CCC(=O)[C@@H]1CCCCCCC(=O)N1CCCCC1CO (stereo partly specified),"inconclusive: 32.6 µM [falling, single point]",–
N/C(=N\OC(=O)c1ccc(F)cc1)c1ccc(Br)cc1,"inconclusive: 3.66 µM [activator, full curve]",–
COc1ccc(C)cc1NC(=O)CSc1nnc(COc2ccc(Cl)cc2)n1Cc1ccco1,"inconclusive: 13 µM [falling, partial curve, poor fit]",–
COc1ccc(OCc2cc(C(=O)N3CCC(c4ccccc4)CC3)no2)c(Cl)c1,"inconclusive: 7.31 µM [activator, partial curve]",–
O=C(COc1ccc(Cl)cc1Cl)Nc1ccc(-c2ccc(N3CCOCC3)nn2)cc1,–,inactive: 0.982%
CCC(C)NC(=O)CSc1nnc(-c2ccc(C(C)(C)C)cc2)n1C (stereo unspecified),–,inactive: -7.69%
CCCN(CC(=O)Nc1ccccc1OC)C(=O)CSc1ccc(Br)cc1C,"inconclusive: 25.9 µM [falling, partial curve, poor fit]",–
CCC1CN(S(=O)(=O)c2cc(-c3cc(C)no3)ccc2C)c2cc(Cl)ccc2O1 (stereo unspecified),"inconclusive: 23.1 µM [falling, partial curve]",–

SMILES,Potency,"activity change, negative = inhibition"
O=C(N/N=C/c1ccc2c(c1)OCO2)c1ccc(NC(=O)c2ccccc2Cl)cc1,"inconclusive: 29.1 µM [falling, single point]",–
C=C(C)c1cccc(C(C)(C)NC(=O)Nc2nnc(C(C)C)s2)c1,"inconclusive: 5.8 µM [falling, single point]",–
O=C(CCc1ccc(S(=O)(=O)NC2CCCCC2)cc1)N(Cc1ccccc1)Cc1ccccc1,"inconclusive: 29.1 µM [falling, single point]",–
COc1ccc(CCNC(=S)NC(=O)c2ccc(Br)cc2)cc1OC,active: 14.6 µM,–
Cc1ccc(-c2nc(-c3ccccc3)no2)cc1,"inconclusive: 0.731 µM [activator, partial curve, poor fit]",–
O=C1C2C3C=CC(C4CC34)C2C(=O)N1/N=C/c1ccc(-c2ccc(F)cc2[N+](=O)[O-])o1 (stereo unspecified),–,inactive: -11.8%
O=C(Cc1c(C(=O)O)[nH]c2ccccc12)NC1CCCC1,"inconclusive: 0.82 µM [falling, partial curve]",–
Cc1cc(C(=O)N2CCCC(Nc3ccccc3)C2)c2ccc(F)cc2n1 (stereo unspecified),–,inactive: 1.62%
Cc1cc(C)n(-c2ccc(C(=O)Nc3ccc(C)c(S(=O)(=O)N4CCOCC4)c3)cc2)n1,"inconclusive: 25.9 µM [falling, partial curve, poor fit]",–
Cc1ccc(-c2csc3nc[nH]c(=S)c23)cc1C,"inconclusive: 20.6 µM [falling, single point]",–
CCN1CCN(CCCNC(=O)CS(=O)(=O)Cc2nc(-c3cccc(OC)c3)oc2C)CC1,"inconclusive: 29.1 µM [activator, single point]",–
Cc1oc2ncnc(N3CCCCC3)c2c1C(=O)NCC1CCN(Cc2cccc(F)c2)CC1,"inconclusive: 29.1 µM [activator, single point]",–
CCC(C)c1ccccc1NC(=O)c1cc2cccc([N+](=O)[O-])c2[nH]1 (stereo unspecified),"inconclusive: 32.6 µM [falling, partial curve, poor fit]",–
O=S1(=O)N=C(N(CCO)/N=C/C=C/c2ccccc2)c2ccccc21,"inconclusive: 25.9 µM [falling, partial curve]",–
Cc1ccc(-n2nnc(-c3nc(-c4cccs4)no3)c2N)cc1C,"inconclusive: 5.8 µM [activator, partial curve, poor fit]",–
Cc1ccc(-n2cccc2C(=S)N=P(N(C)C)(N(C)C)N(C)C)cc1,"inconclusive: 16.4 µM [falling, single point]",–
CCOC(=O)c1ccccc1NC(=O)CN1CCCN(Cc2cc(C)ccc2C)S1(=O)=O,–,inactive: -11.6%
Cc1ccnc(NC(=S)N2CCN(c3cccc(C(F)(F)F)c3)CC2)c1,active: 23.1 µM,–
COc1ccccc1N1CCN(/N=C/c2ccc(O)c(O)c2)CC1,"inconclusive: 18.4 µM [activator, single point]",–
Clc1cccc(Cl)c1CO/N=C/c1c(-c2ccccc2)nc2n1CCS2,active: 18.4 µM,–
c1csc(CNc2ncnc3nc[nH]c23)c1,"inconclusive: 20.6 µM [falling, partial curve, poor fit]",–
CC(=O)c1ccccc1Oc1cc(NN2CCCCC2)c([N+](=O)[O-])cc1[N+](=O)[O-],active: 25.9 µM,–

# Among those listed so far, these contain a nitro group on carbon.
SMILES,Potency,"activity change, negative = inhibition"
O=C1C2C3C=CC(C4CC34)C2C(=O)N1/N=C/c1ccc(-c2ccc(F)cc2[N+](=O)[O-])o1 (stereo unspecified),–,inactive: -11.8%
CCC(C)c1ccccc1NC(=O)c1cc2cccc([N+](=O)[O-])c2[nH]1 (stereo unspecified),"inconclusive: 32.6 µM [falling, partial curve, poor fit]",–
CC(=O)c1ccccc1Oc1cc(NN2CCCCC2)c([N+](=O)[O-])cc1[N+](=O)[O-],active: 25.9 µM,–

# (continued)

SMILES,Potency,"activity change, negative = inhibition"
COc1cccc(NC(=O)Nc2nc(SC(C)(C)C)ns2)c1,"inconclusive: 29.1 µM [falling, single point]",–
COc1ccc(OC)c(/C=N/NC(=O)c2cc(-c3ccc(C)o3)nc3ccccc23)c1,"inconclusive: 16.4 µM [falling, partial curve, poor fit]",–
COc1c(C)cc(S(=O)(=O)NCCc2c(C)[nH]c3ccccc23)c(C)c1C,"inconclusive: 29.1 µM [falling, single point]",–
Cc1cccc(NS(=O)(=O)c2ccc3oc(=O)ccc3c2)c1C,"inconclusive: 14.6 µM [falling, partial curve, poor fit]",–
S=c1nc[nH]c2c1sc1nc(-c3ccccc3)c3c(c12)CCCC3,"inconclusive: 10.3 µM [falling, partial curve, poor fit]",–
Cc1n[nH]c(=O)c2c(NC(=O)CSc3nnc(-c4ccncc4)n3C)oc(C)c12,–,inactive: 1.51%
O=C(NC1CCCCCC1)c1ccccc1-c1ccccc1,"inconclusive: 25.9 µM [falling, single point]",–
Cc1cc(Nc2cccc([N+](=O)[O-])c2)n2c(nc3ccccc32)c1C#N,active: 10.3 µM,–
O=C(NCc1ccccc1)N1CCOCC1,–,inactive: 10.7%
C=CCn1c(C)cc(-c2csc(NC(=O)CCc3nc4ccccc4c(=O)[nH]3)n2)c1C,–,inactive: -16.8%
Nc1ccc2nn(-c3ccccc3)nc2c1,"inconclusive: 14.6 µM [activator, partial curve]",–
Cc1nc2ccccc2n1-c1nc(-c2ccco2)cc(C(F)(F)F)n1,active: 4.61 µM,–
CCOC(=O)N1CCc2c(sc(NC(=O)c3ccc(S(=O)(=O)N4CCCC4)cc3)c2C#N)C1,active: 7.31 µM,–
COc1ccccc1CNC(=O)CCn1c(=O)c2ccccc2n(CC(=O)Nc2cccc(Cl)c2)c1=O,"inconclusive: 20.6 µM [falling, single point]",–
O=C(CNC(=S)NC(=O)c1cccc([N+](=O)[O-])c1)c1ccccc1,"inconclusive: 5.8 µM [activator, full curve, poor fit]",–
COc1ccc(-c2cc(-c3ccccc3)no2)cc1,"inconclusive: 0.184 µM [activator, full curve, poor fit]",–
COc1ccccc1NC(=O)Cn1nc(-c2ccc3c(c2)OCCO3)ccc1=O,"inconclusive: 29.1 µM [falling, single point]",–
Cc1ccc(C2(C)NC(=O)N(CC(=O)NC(=O)NCCC(C)C)C2=O)cc1 (stereo unspecified),"inconclusive: 29.1 µM [falling, single point]",–
Cc1ccc(CNC(=O)Cn2nc(C)n3cccc3c2=O)cc1,"inconclusive: 16.4 µM [activator, single point]",–
CCN(CC)CCNc1ccc(C)c2sc3ccc(O)cc3c(=O)c12,"inconclusive: 1.3 µM [falling, full curve]",–
CCOCCCNC(=O)/C(C#N)=C/c1cc(OC)c(O)c([N+](=O)[O-])c1,–,inactive: -4.47%
Nc1nc2c(-c3ccc(Br)cc3)nnn2c2ccccc12,"inconclusive: 0.461 µM [activator, full curve]",–
